The values that follow come from PubChem BioAssay AID1487 (National Center for Advancing Translational Sciences (NCATS), 2009).

The assay can be described thus: qHTS Assay for Modulators of Lamin A Splicing. Particulars: HeLa LMNA splicing GFP/RFP minigene ratio, 48 h. In short, it runs like this:
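S3 HeLa cells stably expressing lamin A-EGFP splicing minigene plus DsRed2, 600 cells/well, 48 h compound exposure at 37C. Laser-scanning cytometry; analysed as GFP (500-530 nm)/RFP (575-640 nm) total intensity ratio; 0.5% DMSO vehicle.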
Background: In qHTS, concentration-response curves come from the screen itself.

[1] abbreviates: measured here: RFP viability control channel.
[2] abbreviates: measured here: GFP splicing reporter channel.

Some of the results follow. Further columns of the screen follow, without active or inactive calls. The list favours compounds with an active or inconclusive main result. Potencies come from curve fits of mixed quality, noted in brackets.

For the compound `O=C(NC(=S)Nc1ccccn1)c1ccco1`, the AC50 (commonly the concentration giving half of the maximal activity seen) under setting [1] is 7.94 µM [rising, partial curve, poor fit].

With `Nc1nc(SCC(=O)NCCc2ccccc2)[nH]c(=O)c1-c1ccccc1`, under setting [1], the half-maximal activity concentration (AC50) was 0.178 µM [falling, full curve, poor fit].

Consider `O=C(Nc1ccn(Cc2c(F)c(F)cc(F)c2F)n1)c1ccc(COc2ccc(Cl)cc2Cl)o1`, for which the AC50 was 14.1 µM [rising, partial curve, poor fit] under setting [2] and 15.8 µM [rising, single point] under setting [1].

On to `COC(=O)c1[nH]nc2c1C(=O)N(C1CCCCC1)C2=O`, for which the half-maximal activity concentration (AC50) under setting [2] is 14.1 µM [rising, single point].

Take `Cc1ccccc1-c1cc2c(nn1)-c1ccccc1C2=O`: the AC50 under setting [2] was 35.5 µM [falling, single point] and the AC50 under setting [1] was 35.5 µM [falling, single point].

Consider `C/C(=N/NC(=O)c1ccco1)c1ccc(NC(=O)c2ccc(F)cc2)cc1`, for which the concentration at half-maximal activity (AC50) under setting [2] was 35.5 µM [rising, single point].

With `CCc1c(C)nc2ncnn2c1N1CCCC(C(=O)NCCc2ccc(OC)cc2)C1` (stereo unspecified), the AC50 under setting [1] was 17.8 µM [rising, single point].

Regarding `COc1cc(/C=C(\NC(C)=O)C(=O)O)cc(OC)c1OC`, the AC50 is, setting by setting: under setting [2], 3.55 µM [falling, single point]; under setting [1], 0.00447 µM [falling, full curve, poor fit].

In the case of `COc1ccc(C(=O)Nc2ccccc2Cc2ccccc2)c(OC)c1`, the AC50 under setting [2] is 35.5 µM [rising, single point].

On to `Cc1c(N=C2NN=C(c3c[nH]c4ccccc34)CS2)c(=O)n(-c2ccccc2)n1C`, for which the AC50 under setting [2] was 35.5 µM [falling, single point].

On to `CCC(c1nnnn1Cc1ccc2c(c1)OCO2)N1CCN(c2ccc(OC)cc2)CC1` (stereo unspecified), for which the concentration at half-maximal activity (AC50) by setting is: under setting [2], 15.8 µM [rising, single point]; under setting [1], 14.1 µM [rising, single point].

For `O=C(Nc1ccc(S(=O)(=O)N2CCCC2)cc1)c1ccc(CN2CCc3ccccc3C2)cc1`, the AC50 under setting [2] was 0.708 µM [rising, full curve, poor fit] and the AC50 under setting [1] is 0.562 µM [rising, full curve].

As for `O=C(Nc1nc2c(s1)CCCC2)C1COc2ccccc2O1` (stereo unspecified), the AC50 under setting [1] was 14.1 µM [rising, single point].

Regarding `Cc1ccc(OCCn2c(CCCO)nc3ccccc32)cc1`, under setting [2], the AC50 was 6.31 µM [rising, single point].

For `COc1ccc(NC(=S)N(Cc2ccc(Cl)cc2)Cc2ccc(C(=O)O)cc2)cc1Cl`, under setting [1], the AC50 was 8.91 µM [falling, partial curve].

As to `CC(C)c1ccc(S(=O)(=O)c2ccc(NN)cc2)cc1`, the AC50 under setting [1] is 31.6 µM [rising, single point].

With `Cc1ccc(-c2c[n+](CC(=O)N3c4ccccc4Sc4ccccc43)c3n2CCC3)cc1`, the half-maximal activity concentration (AC50) under setting [1] is 15.8 µM [rising, partial curve, poor fit].

Take `O=C(c1ccc(Cn2c(=O)[nH]c3ccccc3c2=O)cc1)N1CCN(c2ccc(Cl)cc2)CC1`: the half-maximal activity concentration (AC50) under setting [2] was 11.2 µM [rising, partial curve] and the half-maximal activity concentration (AC50) under setting [1] is 14.1 µM [rising, partial curve].

Take `COc1ccc(C(C(=O)NC(C)(C)C)N(Cc2ccc(C)cc2)C(=O)CCC(=O)Nc2cc(C)on2)cc1` (stereo unspecified): under setting [1], the AC50 was 7.08 µM [falling, single point].

For the compound `Cc1ccc(C)c(N2CCN(C(=O)C3CCCN(S(=O)(=O)c4c(C)noc4C)C3)CC2)c1` (stereo unspecified), the concentration at half-maximal activity (AC50) is 12.6 µM [rising, single point] under setting [2] and 20 µM [rising, partial curve] under setting [1].

With `CC(=O)NS(=O)(=O)c1ccc(N=c2ssc3c2-c2cc(C)c(C)cc2NC3(C)C)cc1`, the AC50 under setting [1] was 35.5 µM [rising, single point].

Turning to `Cn1cnc([N+](=O)[O-])c1Oc1cccc2ccccc12`, the concentration at half-maximal activity (AC50) under setting [2] was 14.1 µM [rising, single point] and the half-maximal activity concentration (AC50) under setting [1] is 12.6 µM [rising, single point].

Regarding `O=C1c2cc([N+](=O)[O-])cc3cc([N+](=O)[O-])cc(c23)C(=O)N1c1ccccn1`, under setting [1], the AC50 is 8.91 µM [rising, partial curve].

Take `CC1CCc2nc3sc4c(c3c(N)c2C1)CCCC4` (stereo unspecified): the concentration at half-maximal activity (AC50) is 22.4 µM [rising, single point] under setting [2] and 22.4 µM [rising, single point] under setting [1].

For `Nc1c(C(=O)O)ccc2c1C(=O)c1ccccc1C2=O`, under setting [1], the AC50 is 0.1 µM [rising, full curve, poor fit].

Consider `O=C(C1CCCCN1S(=O)(=O)c1ccc(F)cc1)N1CCN(c2ccccc2F)CC1` (stereo unspecified), for which the AC50 under setting [1] is 11.2 µM [rising, single point].

Consider `O=C(N/N=C(/CC(=O)c1cccs1)C(F)(F)F)c1ccc(O)cc1`, for which the concentration at half-maximal activity (AC50) under setting [2] is 0.112 µM [rising, partial curve, poor fit] and the AC50 under setting [1] is 20 µM [rising, partial curve, poor fit].

With `COc1ccc(N(CCC(=O)O)S(=O)(=O)c2ccc(C)cc2C)cc1`, the half-maximal activity concentration (AC50) under setting [1] was 10 µM [rising, partial curve].

With `CCS(=O)(=O)NCCc1csc(-c2ccccc2)n1`, the AC50 is 5.62 µM [rising, partial curve, poor fit] under setting [2] and 12.6 µM [rising, partial curve, poor fit] under setting [1].

`Cc1cc(N)n(-c2ccc(S(=O)(=O)c3ccc(C(C)C)cc3)cc2)n1`: the AC50 under setting [2] is 0.447 µM [rising, full curve, poor fit] and the AC50 under setting [1] is 14.1 µM [rising, partial curve].

As to `CCCCn1c(=N)n(CC(O)COc2cccc(C)c2)c2ccccc21` (stereo unspecified), the half-maximal activity concentration (AC50) reads like this: under setting [2], 10 µM [rising, single point]; under setting [1], 15.8 µM [rising, single point].

Turning to `CCOC(=O)CN1N=C(/C=C/c2ccc(OC)cc2)CCC1=O`, the concentration at half-maximal activity (AC50) under setting [1] was 7.08 µM [falling, partial curve].

For the compound `CCCCC(=O)NC1CC(=O)N(c2ccc3c(c2)OCCO3)C1` (stereo unspecified), under setting [2], the AC50 was 7.08 µM [falling, single point].

Take `Cn1c(=O)c(C(=O)CSc2nncs2)c(N)n(Cc2ccccc2)c1=O`: the AC50 is 17.8 µM [rising, single point] under setting [2] and 11.2 µM [rising, partial curve, poor fit] under setting [1].

Consider `COc1ccc(-c2csc(Cc3nnc(N4CCOCC4)n3-c3ccccc3)n2)cc1`, for which the AC50 under setting [1] was 11.2 µM [rising, partial curve, poor fit].

With `CCc1cc(OCCCSc2nc(C)cc(=O)[nH]2)ccc1Cl`, under setting [1], the AC50 is 8.91 µM [rising, partial curve].

With `Cc1ccc(NC(=O)COC(=O)/C(=C/c2cccs2)c2cccs2)cc1S(=O)(=O)N(C)C`, the AC50 under setting [1] was 14.1 µM [rising, partial curve].

Turning to `CCc1nnc(NC(=O)c2cc(S(=O)(=O)N(CC)CC)ccc2Cl)s1`, the AC50 under setting [1] is 15.8 µM [rising, partial curve].

Consider `CCCc1cc(-c2[nH]ncc2-c2ccc(C(=O)OCC)o2)c(O)cc1O`, for which, under setting [1], the AC50 is 20 µM [rising, partial curve, poor fit].

With `CC(C)CNC(=O)c1coc(=O)c(Br)c1`, the concentration at half-maximal activity (AC50) under setting [1] is 31.6 µM [rising, single point].

Turning to `Cc1cc(F)ccc1NCc1ccc([N+](=O)[O-])cc1`, the AC50 under setting [2] is 15.8 µM [rising, single point] and the AC50 under setting [1] was 11.2 µM [rising, partial curve, poor fit].

For `CCOc1ccccc1-c1cc(C(=O)N/N=C/c2ccc(O)c(OC)c2)c2ccccc2n1`, the half-maximal activity concentration (AC50) under setting [2] is 14.1 µM [rising, single point].

`COc1ccc(Cc2nc(-c3cccs3)no2)cc1OC`: the half-maximal activity concentration (AC50) under setting [1] was 31.6 µM [rising, single point].

As to `Cc1nn(Cc2ccccc2)c(Cl)c1/C=N/NC(=O)c1cccnc1`, the AC50 is, setting by setting: under setting [2], 6.31 µM [rising, partial curve, poor fit]; under setting [1], 0.158 µM [rising, full curve, poor fit].

In the case of `CC1Cc2ccccc2N1C(=S)NC(=O)c1cccc(Br)c1` (stereo unspecified), the AC50 under setting [1] is 22.4 µM [rising, partial curve].

Consider `C#CC[N+](C)(C)CCCCCCCCCCCC`, for which the AC50 was 0.0501 µM [falling, partial curve, poor fit] under setting [2] and 5.62 µM [rising, single point] under setting [1].

In the case of `COc1ccc(C2=NOC(C(=O)NCc3ccc(F)cc3)C2)cc1` (stereo unspecified), the AC50 under setting [2] is 5.62 µM [falling, full curve] and the AC50 under setting [1] is 6.31 µM [falling, full curve].

For `COc1ccc(N(C(=O)C(C)C)S(=O)(=O)c2cccs2)cc1`, the half-maximal activity concentration (AC50) under setting [1] is 7.94 µM [rising, partial curve, poor fit].

Consider `Cc1ccc(-c2nc(N/N=C/c3ccccc3[N+](=O)[O-])c3ccccc3n2)cc1`, for which the concentration at half-maximal activity (AC50) is, setting by setting: under setting [2], 1.78 µM [falling, partial curve]; under setting [1], 8.91 µM [falling, single point].

As for `Cc1cccc2cc(CN(Cc3cccs3)C(c3nnnn3C3CCCC3)C(C)C)c(=O)[nH]c12` (stereo unspecified), the AC50 under setting [1] was 3.55 µM [rising, partial curve, poor fit].

For the compound `O=C(c1cccc(Cl)c1)N1CCN(CCc2ccncc2)CC1`, the AC50 under setting [2] is 31.6 µM [falling, single point] and the AC50 under setting [1] is 31.6 µM [falling, single point].

Turning to `CCC/C(O)=C1\C(=O)CC(C)(C)CC1=Nc1ccccc1OC`, the concentration at half-maximal activity (AC50) is, setting by setting: under setting [2], 31.6 µM [rising, single point]; under setting [1], 22.4 µM [rising, single point].

For the compound `CN1CCN(/N=C/c2ccc(N(C)c3ccccc3)cc2)CC1`, the AC50 under setting [1] was 10 µM [rising, partial curve].

With `COc1cc(C(=O)NS(=O)(=O)c2ccccc2C)ccc1Cc1cn(C)c2ccc(NC(=O)OC3CCCC3)cc12`, the AC50 under setting [2] was 12.6 µM [rising, partial curve, poor fit].

For `COc1ccc(OC)c(C2C3=C(N=C4SCC(=O)N42)c2ccccc2CC3)c1` (stereo unspecified), the half-maximal activity concentration (AC50) under setting [1] was 8.91 µM [rising, partial curve, poor fit].
